Measured values: publication PMC3722104
No constants are given. Whether binding was seen depends on the method and setting. In cells and extracts the contact can be indirect. Some entries that bind do so weakly or less than the wild type.

The chains behind the UniProt entries cited, without tags or fusion partners. Residues count along the entry.
UniProt Q91ZX7, residues 20-4545: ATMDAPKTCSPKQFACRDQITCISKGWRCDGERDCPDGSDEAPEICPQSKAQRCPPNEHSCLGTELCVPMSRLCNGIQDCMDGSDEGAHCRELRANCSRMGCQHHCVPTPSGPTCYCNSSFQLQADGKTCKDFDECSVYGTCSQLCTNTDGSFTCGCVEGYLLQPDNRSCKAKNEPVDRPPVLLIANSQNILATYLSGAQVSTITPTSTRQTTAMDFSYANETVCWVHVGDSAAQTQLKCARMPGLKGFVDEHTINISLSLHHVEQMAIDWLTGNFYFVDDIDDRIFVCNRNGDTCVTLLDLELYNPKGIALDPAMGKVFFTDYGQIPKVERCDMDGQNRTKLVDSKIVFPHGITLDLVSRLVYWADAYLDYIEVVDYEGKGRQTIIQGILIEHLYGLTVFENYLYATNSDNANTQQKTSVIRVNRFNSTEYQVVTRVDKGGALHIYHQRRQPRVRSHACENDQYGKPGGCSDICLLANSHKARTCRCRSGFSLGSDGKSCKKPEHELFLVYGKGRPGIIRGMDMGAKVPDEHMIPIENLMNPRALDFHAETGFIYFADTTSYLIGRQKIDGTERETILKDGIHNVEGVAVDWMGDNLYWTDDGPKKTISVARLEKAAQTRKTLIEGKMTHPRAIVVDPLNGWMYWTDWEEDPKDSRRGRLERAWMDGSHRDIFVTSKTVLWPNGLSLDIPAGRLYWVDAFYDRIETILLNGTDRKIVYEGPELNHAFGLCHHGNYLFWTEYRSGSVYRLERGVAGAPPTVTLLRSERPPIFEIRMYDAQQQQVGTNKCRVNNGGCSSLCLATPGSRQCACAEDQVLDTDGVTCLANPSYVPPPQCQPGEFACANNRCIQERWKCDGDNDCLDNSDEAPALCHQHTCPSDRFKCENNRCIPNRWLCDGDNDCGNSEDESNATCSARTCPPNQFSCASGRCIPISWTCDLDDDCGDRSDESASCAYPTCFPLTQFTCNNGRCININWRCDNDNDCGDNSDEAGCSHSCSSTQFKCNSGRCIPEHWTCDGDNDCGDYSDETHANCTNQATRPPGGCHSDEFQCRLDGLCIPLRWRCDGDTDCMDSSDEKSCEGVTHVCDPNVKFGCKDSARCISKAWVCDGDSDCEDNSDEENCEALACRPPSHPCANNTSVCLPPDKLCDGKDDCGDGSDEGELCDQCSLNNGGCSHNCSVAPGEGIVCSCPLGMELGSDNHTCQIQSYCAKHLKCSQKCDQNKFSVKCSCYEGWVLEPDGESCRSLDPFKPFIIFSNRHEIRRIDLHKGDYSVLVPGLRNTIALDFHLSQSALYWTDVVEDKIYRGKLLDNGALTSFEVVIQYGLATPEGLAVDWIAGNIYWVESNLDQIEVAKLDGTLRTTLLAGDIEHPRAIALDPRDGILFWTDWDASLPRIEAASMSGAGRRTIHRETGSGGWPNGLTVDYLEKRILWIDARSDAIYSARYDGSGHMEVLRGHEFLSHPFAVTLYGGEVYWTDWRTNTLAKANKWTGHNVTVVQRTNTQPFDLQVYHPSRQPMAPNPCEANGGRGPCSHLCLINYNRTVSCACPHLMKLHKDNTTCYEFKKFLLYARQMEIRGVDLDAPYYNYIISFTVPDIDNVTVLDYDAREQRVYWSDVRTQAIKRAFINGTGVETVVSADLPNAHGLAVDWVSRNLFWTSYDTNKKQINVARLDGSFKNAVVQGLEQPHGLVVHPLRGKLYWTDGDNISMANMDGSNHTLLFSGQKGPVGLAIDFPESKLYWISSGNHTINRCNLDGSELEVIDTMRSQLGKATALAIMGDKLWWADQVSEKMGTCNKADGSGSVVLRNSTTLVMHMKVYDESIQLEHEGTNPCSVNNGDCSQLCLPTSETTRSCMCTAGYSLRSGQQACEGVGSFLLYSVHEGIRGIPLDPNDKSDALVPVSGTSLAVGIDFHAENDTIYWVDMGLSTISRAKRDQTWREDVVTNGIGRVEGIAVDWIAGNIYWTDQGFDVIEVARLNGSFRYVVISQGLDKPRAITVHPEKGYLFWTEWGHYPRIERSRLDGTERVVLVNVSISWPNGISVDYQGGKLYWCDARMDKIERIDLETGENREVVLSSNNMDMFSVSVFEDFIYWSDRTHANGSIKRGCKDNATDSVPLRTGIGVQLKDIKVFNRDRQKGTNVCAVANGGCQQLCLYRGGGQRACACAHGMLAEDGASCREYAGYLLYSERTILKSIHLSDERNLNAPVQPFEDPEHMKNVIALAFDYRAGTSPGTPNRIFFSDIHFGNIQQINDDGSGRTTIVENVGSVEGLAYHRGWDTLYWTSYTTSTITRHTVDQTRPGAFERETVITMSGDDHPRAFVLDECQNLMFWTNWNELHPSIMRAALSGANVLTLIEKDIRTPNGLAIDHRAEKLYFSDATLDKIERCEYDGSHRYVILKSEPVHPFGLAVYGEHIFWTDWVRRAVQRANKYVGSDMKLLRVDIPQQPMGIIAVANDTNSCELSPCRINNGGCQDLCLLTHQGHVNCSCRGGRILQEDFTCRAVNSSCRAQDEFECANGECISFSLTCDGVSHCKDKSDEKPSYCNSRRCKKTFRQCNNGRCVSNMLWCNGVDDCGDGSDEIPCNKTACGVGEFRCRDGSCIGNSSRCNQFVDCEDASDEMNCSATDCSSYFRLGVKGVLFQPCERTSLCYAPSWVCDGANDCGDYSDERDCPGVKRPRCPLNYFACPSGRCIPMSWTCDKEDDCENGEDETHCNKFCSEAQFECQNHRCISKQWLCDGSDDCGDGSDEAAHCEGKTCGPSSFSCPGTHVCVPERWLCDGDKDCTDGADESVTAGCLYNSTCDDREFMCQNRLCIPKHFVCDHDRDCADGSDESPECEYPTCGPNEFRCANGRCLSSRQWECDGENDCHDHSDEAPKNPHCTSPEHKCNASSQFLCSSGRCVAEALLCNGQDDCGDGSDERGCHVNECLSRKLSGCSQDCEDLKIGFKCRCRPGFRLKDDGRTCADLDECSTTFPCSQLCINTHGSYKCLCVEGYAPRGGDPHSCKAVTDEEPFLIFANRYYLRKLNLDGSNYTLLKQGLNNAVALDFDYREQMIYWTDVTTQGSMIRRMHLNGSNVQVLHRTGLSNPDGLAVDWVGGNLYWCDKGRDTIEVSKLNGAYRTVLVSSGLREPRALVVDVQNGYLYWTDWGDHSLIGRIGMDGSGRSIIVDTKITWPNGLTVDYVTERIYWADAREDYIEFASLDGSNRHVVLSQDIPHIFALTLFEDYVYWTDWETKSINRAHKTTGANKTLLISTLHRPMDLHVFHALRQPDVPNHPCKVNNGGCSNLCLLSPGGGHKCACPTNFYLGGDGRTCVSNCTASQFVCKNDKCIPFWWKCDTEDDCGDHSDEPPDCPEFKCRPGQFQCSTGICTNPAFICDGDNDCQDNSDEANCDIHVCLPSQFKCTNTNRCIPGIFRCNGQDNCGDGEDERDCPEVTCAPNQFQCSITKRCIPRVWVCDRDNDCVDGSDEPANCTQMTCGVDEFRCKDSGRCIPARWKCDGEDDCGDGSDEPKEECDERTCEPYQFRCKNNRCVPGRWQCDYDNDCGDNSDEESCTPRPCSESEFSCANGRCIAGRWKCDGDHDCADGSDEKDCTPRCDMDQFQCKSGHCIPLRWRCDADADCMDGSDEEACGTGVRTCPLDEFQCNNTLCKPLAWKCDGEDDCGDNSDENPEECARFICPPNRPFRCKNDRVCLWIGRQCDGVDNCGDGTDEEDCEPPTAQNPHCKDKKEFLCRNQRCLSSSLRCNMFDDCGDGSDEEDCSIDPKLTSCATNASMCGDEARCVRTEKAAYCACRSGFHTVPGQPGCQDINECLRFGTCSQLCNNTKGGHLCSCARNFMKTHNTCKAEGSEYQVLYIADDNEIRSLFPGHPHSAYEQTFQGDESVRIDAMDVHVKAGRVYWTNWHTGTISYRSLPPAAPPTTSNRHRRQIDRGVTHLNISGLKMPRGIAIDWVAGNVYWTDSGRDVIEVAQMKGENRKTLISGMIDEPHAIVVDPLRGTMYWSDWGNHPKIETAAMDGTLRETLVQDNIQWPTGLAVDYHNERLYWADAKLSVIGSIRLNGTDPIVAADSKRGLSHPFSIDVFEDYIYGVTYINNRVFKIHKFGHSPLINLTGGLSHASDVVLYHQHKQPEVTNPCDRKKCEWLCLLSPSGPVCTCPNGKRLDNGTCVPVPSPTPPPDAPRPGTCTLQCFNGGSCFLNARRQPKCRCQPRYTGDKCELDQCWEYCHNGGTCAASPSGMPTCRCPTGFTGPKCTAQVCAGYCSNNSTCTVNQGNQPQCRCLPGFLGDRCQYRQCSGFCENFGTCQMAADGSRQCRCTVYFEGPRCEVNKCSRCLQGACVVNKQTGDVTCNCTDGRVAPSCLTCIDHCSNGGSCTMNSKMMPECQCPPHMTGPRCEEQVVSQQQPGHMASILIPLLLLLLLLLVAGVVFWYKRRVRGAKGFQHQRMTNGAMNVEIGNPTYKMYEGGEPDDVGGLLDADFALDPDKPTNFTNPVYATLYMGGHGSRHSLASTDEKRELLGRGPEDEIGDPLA
UniProt Q01097, residues 27-1482: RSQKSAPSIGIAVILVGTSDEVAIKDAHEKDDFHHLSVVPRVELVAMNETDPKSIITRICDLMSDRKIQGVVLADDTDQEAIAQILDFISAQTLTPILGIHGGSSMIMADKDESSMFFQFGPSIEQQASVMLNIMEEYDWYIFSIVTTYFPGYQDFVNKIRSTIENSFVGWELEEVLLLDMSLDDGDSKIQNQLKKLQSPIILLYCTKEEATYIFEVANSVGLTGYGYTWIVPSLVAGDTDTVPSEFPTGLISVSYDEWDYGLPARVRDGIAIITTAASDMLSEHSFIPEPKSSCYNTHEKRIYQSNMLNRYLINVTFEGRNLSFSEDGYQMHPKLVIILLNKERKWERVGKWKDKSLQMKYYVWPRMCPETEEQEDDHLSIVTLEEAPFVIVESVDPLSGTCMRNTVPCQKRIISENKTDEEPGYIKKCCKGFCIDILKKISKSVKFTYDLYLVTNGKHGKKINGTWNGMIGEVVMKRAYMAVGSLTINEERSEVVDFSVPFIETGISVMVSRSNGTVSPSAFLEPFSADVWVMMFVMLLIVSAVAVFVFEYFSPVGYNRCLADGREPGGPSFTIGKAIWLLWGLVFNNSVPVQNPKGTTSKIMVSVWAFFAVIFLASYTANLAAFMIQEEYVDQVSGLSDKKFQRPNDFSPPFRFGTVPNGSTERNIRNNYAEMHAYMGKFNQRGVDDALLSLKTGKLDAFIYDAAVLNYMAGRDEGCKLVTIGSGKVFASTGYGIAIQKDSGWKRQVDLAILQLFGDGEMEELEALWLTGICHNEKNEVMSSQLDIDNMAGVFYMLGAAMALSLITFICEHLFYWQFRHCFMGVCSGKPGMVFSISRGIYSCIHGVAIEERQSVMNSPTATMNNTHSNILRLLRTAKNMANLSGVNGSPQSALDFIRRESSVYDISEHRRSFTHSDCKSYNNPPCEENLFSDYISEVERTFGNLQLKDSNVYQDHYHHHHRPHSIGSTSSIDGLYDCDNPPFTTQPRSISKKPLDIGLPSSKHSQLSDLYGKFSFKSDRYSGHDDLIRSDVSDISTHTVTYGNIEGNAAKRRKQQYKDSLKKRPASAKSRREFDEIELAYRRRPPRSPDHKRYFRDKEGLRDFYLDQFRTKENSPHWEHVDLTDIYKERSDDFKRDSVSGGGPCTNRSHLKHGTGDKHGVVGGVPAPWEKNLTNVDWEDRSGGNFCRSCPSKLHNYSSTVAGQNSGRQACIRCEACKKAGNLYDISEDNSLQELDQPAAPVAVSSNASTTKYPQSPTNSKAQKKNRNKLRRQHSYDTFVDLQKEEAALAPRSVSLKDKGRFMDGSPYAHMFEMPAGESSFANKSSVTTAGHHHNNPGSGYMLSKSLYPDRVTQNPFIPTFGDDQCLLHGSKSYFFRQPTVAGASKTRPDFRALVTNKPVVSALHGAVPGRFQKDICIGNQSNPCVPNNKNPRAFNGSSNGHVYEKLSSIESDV

Key:
[1] = molecular target: Low density lipoprotein receptor-related protein 1 (LRP1), wild type (mouse (endogenous in primary cortical neurons)) (UniProt Q91ZX7); assay: co-IP; lysates of primary cortical neurons (WT or LRP1ΔNPxY2) in RIPA buffer with protease and phosphatase inhibitors; equal amounts of total lysate (80 µg) precipitated with polyclonal LRP1 antibody 1704 and protein G sepharose at 4°C overnight; Western blot for NR1, NR2B or PSD95
[2] = molecular target: Low density lipoprotein receptor-related protein 1 (LRP1), wild type (mouse (endogenous in primary cortical neurons)) (UniProt Q91ZX7); assay: condition: only lysate treated with calf intestinal phosphatase (CIP, 10 units/μg protein, 30 minutes at 37°C); co-IP; neuronal lysates in RIPA buffer with protease inhibitors, 100 µg protein treated with 1000 units calf intestinal phosphatase (CIP) in phosphatase buffer (50 mM Tris-HCl, 100 mM NaCl, 10 mM MgCl2, 1 mM DTT, pH 7.9) at 37°C for 30 min before immunoprecipitation of LRP1 and Western blot

binding [1]: binds | binding [2]: no binding
Substance: NMDA receptor subunit 2B (NR2B) (from UniProt Q01097 27-1482)
